The test system of the test is HEK293A TEAD-LUC reporter. Description: TEAD-luciferase reporter activity (YAP activation), robust Z score vs plate; higher = stronger YAP/TEAD activation. As to conditions: 24 h. In general terms: In a reporter assay the amount or activity of a reporter protein is the signal.

Where a name gives a salt, the structure may show the parent alone. This is one part of the list. Repeats in this data set agree poorly, so a single value says little.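 The human kidney-derived cells carry a stably integrated construct of eight TEAD-binding elements driving luciferase, read by luminescence in a drug-repurposing library screen. A compound counts as a hit when its signal is more than five robust Z scores above the plate mean.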

Consider `COc1cc(OC2CCN(C(C)=O)CC2)ccc1C(=O)N1CCC(N2C(=O)OCc3ccccc32)CC1`, for which the TEAD-luciferase reporter activity was inactive: -1.97 (compound concentration: 200 nM), inactive: -0.205 (compound concentration: 2 uM) and inactive: -1.33 (compound concentration: 10 uM).
For `COc1cc(N)c(Cl)cc1C(=O)N[C@@H]1CCN(CCCCCC(=O)O[C@H]2CN3CCC2CC3)C[C@@H]1OC` [Naronapride] the same measures were inactive: 1.63, inactive: 0.0626 and inactive: -1.63.
For `N#CCCN1C(=O)C(O)N=C(c2ccccc2F)c2cc(Cl)ccc21` (stereo not given) [cinolazepam] the same measures were inactive: 1.32, inactive: -1.65 and inactive: 1.45.
For `O=C(Nc1ccccc1)N[C@@H]1C(=O)N(CC23CC4CC(CC(C4)C2)C3)c2ccccc2N(c2ccccc2)C1=O` the same measures were inactive: -1.72, inactive: -1.33 and inactive: -0.887.
Take `Cc1ccc(-c2ccc(OC3CN4CCC3CC4)cn2)cc1` (stereo not given): the TEAD-luciferase reporter activity reads like this: (compound concentration: 200 nM) inactive: 0.157; (compound concentration: 2 uM) inactive: -1.91; (compound concentration: 10 uM) inactive: -1.61.
`CC1=C(CC/C(C)=C/CCC2=CC[C@H](C3=CC(=O)O[C@H]3O)O[C@H]2O)C(C)(C)CCC1` [Manoalide]: the TEAD-luciferase reporter activity runs as follows: (compound concentration: 200 nM) inactive: -0.963; (compound concentration: 2 uM) inactive: -0.772; (compound concentration: 10 uM) inactive: 0.307.
As to `C=CCCCCCCCCC(=O)O[C@H]1CC[C@H]2[C@@H]3CCC4=CC(=O)C=C[C@]4(C)[C@H]3CC[C@]12C` [Bolde    Undecylenate], the TEAD-luciferase reporter activity (compound concentration: 2 uM) is inactive: 0.356.
As to `C=CCCCCCCCCC(=O)O[C@H]1CC[C@H]2[C@@H]3CCC4=CC(=O)C=C[C@]4(C)[C@H]3CC[C@]12C` [Bolde   Undecylenate], where the note is “compound concentration: 10 uM”, the TEAD-luciferase reporter activity was inactive: 0.89.
`C=CCCCCCCCCC(=O)O[C@H]1CC[C@H]2[C@@H]3CCC4=CC(=O)C=C[C@]4(C)[C@H]3CC[C@]12C` [Bolde Undecylenate]: the TEAD-luciferase reporter activity (compound concentration: 200 nM) was inactive: 2.97.
For `N#Cc1cncc(N2C[C@H]3CNC[C@H]32)c1`, the TEAD-luciferase reporter activity (compound concentration: 200 nM) is active: 5.05, the TEAD-luciferase reporter activity (compound concentration: 2 uM) is inactive: -1.36 and the TEAD-luciferase reporter activity (compound concentration: 10 uM) was inactive: -0.953.
Consider `O=C1[O][Pt]2([NH][C@@H]3CCCC[C@H]3[NH]2)[O]C1=O`, for which the TEAD-luciferase reporter activity by setting is: (compound concentration: 200 nM) inactive: 4.24; (compound concentration: 2 uM) inactive: 0.292; (compound concentration: 10 uM) inactive: -0.0318.
As for `CCc1c(C(=O)C(N)=O)c2c(OCC(=O)O)cccc2n1Cc1ccccc1` [Varespladib], the TEAD-luciferase reporter activity (compound concentration: 2 uM) is inactive: -1.35.
For `CCc1c(C(=O)C(N)=O)c2c(OCC(=O)O)cccc2n1Cc1ccccc1`, the TEAD-luciferase reporter activity is, setting by setting: (compound concentration: 200 nM) inactive: 0.622; (compound concentration: 10 uM) inactive: 1.37.
For `CC(=O)OC(c1ccccc1)C1CCCCN1` (stereo not given), the TEAD-luciferase reporter activity runs as follows: (compound concentration: 200 nM) inactive: 0.261; (compound concentration: 2 uM) inactive: 0.147; (compound concentration: 10 uM) inactive: -0.771.
For `NC(=O)CN1CC(c2ccccc2)CC1=O` (stereo not given) [Fonturacetam] the same measures were inactive: -1.86, inactive: 2.08 and inactive: -1.73.
For the compound `CCN(CC)CC(=O)Nc1ccc(Cl)cc1C(=O)c1ccccc1`, the TEAD-luciferase reporter activity was active: 13.1 (compound concentration: 200 nM), inactive: -0.38 (compound concentration: 2 uM) and inactive: 2.67 (compound concentration: 10 uM).
For `O=C(O)CCSC1c2ccccc2COc2ccc(OCc3ccc4cc(F)c(Cl)cc4n3)cc21` (stereo not given) the same measures were inactive: 0.605, inactive: -0.0354 and inactive: -0.888.
For `CCCCCn1cc(C(=O)C23CC4CC(CC(C4)C2)C3)c2ccccc21` the same measures were inactive: -0.833, inactive: 0.115 and inactive: 0.254.
Turning to `O=[N+]([O-])c1ccc([As](=O)(O)O)cc1`, the TEAD-luciferase reporter activity is inactive: 0.546 (compound concentration: 200 nM), inactive: 3.82 (compound concentration: 2 uM) and inactive: -1.39 (compound concentration: 10 uM).
For `COC1C(OC(C)=O)C(C)OC(OC2CC[C@@]3(C=O)[C@@H](CCC4[C@@H]3CC[C@]3(C)[C@H](c5ccc(=O)oc5)CCC43O)C2)C1OC(C)=O` (stereo not given in full) the same measures were active: 14.7, inactive: -3.15 and active: 10.6.
Turning to `CCCN(CCC)[C@@H]1CCc2c(OC)cccc2[C@@H]1C`, the TEAD-luciferase reporter activity reads like this: (compound concentration: 200 nM) inactive: 3.28; (compound concentration: 2 uM) inactive: -1.6; (compound concentration: 10 uM) inactive: 0.237.
As to `CC(C)[C@]12O[C@H]1[C@@H]1O[C@]13[C@]1(O[C@H]1C[C@H]1C4=C(CC[C@@]13C)C(=O)OC4)[C@@H]2O`, the TEAD-luciferase reporter activity reads like this: (compound concentration: 200 nM) inactive: -1.46; (compound concentration: 10 uM) inactive: -1.87.
Regarding `CC(C)[C@]12O[C@H]1[C@@H]1O[C@]13[C@]1(O[C@H]1C[C@H]1C4=C(CC[C@@]13C)C(=O)OC4)[C@@H]2O` [Triptolide], for the setting “compound concentration: 2 uM”, the TEAD-luciferase reporter activity was inactive: -3.77.
Consider `CN1C[C@@H](NS(=O)(=O)N(C)C)C[C@@H]2c3cccc4c3c(cn4C)C[C@H]21` [Mesulergine HCl], for which the TEAD-luciferase reporter activity is inactive: 3.21 (compound concentration: 200 nM) and inactive: 1.42 (compound concentration: 10 uM).
For `CN1C[C@@H](NS(=O)(=O)N(C)C)C[C@@H]2c3cccc4c3c(cn4C)C[C@H]21`, the TEAD-luciferase reporter activity (compound concentration: 2 uM) was inactive: -2.05.
Regarding `Oc1nc2cccc(N3CCNCC3)c2o1`, the TEAD-luciferase reporter activity (compound concentration: 200 nM) is inactive: -2.21, the TEAD-luciferase reporter activity (compound concentration: 2 uM) was inactive: -1.13 and the TEAD-luciferase reporter activity (compound concentration: 10 uM) was inactive: 1.97.
For `CCCCCCCCCCCCCCCC[n+]1ccccc1` [Cetylpyridinium chloride] the same measures were inactive: 0.426, inactive: -1.77 and inactive: -2.05.
On the same counts, the results for `CCCCCCCCCCCCCC(=O)O[C@@H]1[C@@H](C)[C@@]2(O)[C@@H](C=C(CO)C[C@]3(O)C(=O)C(C)=C[C@@H]23)[C@@H]2C(C)(C)[C@]12OC(C)=O` [Phorbol 12-myristate 13-acetate] are active: 31.6, active: 13.7 and active: 15.8.
As for `CC1=C(N2CC2)C(=O)C(CO)=C(N2CC2)C1=O`, the TEAD-luciferase reporter activity is, setting by setting: (compound concentration: 200 nM) inactive: -0.425; (compound concentration: 2 uM) inactive: -2.94; (compound concentration: 10 uM) inactive: -1.8.
For `CC1(C)C2=CC[C@@H]3[C@H](CC[C@@]4(C)[C@H]3CC[C@]4(C)O)[C@@]2(C)Cc2cnoc21`, the TEAD-luciferase reporter activity runs as follows: (compound concentration: 200 nM) inactive: 0.96; (compound concentration: 2 uM) inactive: 0.425; (compound concentration: 10 uM) inactive: 0.282.

Values taken from the supplement of paper PMC10735217.
